This is one part of the list.
How the values were obtained:
Assay in all cases: log2 fold change, soluble protein after heating vs DMSO (PISA); higher = thermal stabilisation; K562 lysate, 10 uM; active = over 0.2 and 3.5 SD of the protein, either way, in both replicates (recomputed)
vemurafenib = compound: CCCS(=O)(=O)Nc1ccc(F)c(C(=O)c2c[nH]c3ncc(-c4ccc(Cl)cc4)cc23)c1F [vemurafenib]
Outline: (§1)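 A 30 min treatment with 10 μM compound was applied to crude K562 extract at 1 mg/mL protein in PBS pH 7.4 with 1 mM MgCl2. Heating for 3 min spanned 48°C-58°C, after which aliquots were pooled, adjusted to 0.5% NP-40 at 4°C and spun at 21,000xg for 90 min. TMTpro 16plex LC-MS/MS of the supernatant, with channel sums equalised, gave values recorded as log-two fold change in thermal stability against solvent controls, from duplicates.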

By UniProt entry, the sequences of proteins in these tests, tags left out. Where a name states a change or a piece, a line headed by the entry shows the natural chain unless it says otherwise.
UniProt Q9NRK6: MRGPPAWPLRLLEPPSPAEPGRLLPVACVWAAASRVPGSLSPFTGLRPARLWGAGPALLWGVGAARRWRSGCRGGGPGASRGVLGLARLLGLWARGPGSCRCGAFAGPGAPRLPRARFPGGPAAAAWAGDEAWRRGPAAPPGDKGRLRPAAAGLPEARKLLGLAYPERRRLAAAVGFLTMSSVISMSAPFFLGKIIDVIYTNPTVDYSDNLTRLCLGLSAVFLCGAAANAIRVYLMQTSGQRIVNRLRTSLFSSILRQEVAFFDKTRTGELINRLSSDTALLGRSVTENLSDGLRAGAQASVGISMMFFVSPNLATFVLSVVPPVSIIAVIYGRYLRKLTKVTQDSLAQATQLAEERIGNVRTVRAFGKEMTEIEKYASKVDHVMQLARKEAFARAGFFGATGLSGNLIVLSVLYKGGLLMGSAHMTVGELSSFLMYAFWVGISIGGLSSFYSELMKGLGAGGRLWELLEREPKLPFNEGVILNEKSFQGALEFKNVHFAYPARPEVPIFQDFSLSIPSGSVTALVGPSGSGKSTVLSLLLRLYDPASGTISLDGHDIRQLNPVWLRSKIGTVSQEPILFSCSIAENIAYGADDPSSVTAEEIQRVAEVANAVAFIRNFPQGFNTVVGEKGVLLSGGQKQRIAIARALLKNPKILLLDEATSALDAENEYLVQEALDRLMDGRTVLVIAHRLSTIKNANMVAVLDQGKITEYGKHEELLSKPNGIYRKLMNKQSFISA
UniProt Q8N2K0: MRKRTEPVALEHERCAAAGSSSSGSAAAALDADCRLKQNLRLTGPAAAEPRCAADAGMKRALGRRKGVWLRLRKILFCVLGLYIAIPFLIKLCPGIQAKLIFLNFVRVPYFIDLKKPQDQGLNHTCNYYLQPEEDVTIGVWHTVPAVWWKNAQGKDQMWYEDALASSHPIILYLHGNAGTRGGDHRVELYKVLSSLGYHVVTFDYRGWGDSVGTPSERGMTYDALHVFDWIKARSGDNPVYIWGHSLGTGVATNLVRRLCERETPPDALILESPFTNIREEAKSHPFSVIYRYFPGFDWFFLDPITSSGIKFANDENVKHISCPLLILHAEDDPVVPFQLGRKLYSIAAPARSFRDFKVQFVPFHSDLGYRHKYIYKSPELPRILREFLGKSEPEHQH
UniProt Q9NUJ1: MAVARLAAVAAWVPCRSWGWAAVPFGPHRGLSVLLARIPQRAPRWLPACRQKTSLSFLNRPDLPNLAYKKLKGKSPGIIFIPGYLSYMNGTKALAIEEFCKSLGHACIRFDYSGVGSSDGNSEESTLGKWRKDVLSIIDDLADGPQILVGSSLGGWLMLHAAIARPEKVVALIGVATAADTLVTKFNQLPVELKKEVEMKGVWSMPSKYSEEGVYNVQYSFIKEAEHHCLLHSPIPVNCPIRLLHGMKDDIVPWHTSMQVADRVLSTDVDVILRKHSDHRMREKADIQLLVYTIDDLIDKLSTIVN
UniProt Q99758: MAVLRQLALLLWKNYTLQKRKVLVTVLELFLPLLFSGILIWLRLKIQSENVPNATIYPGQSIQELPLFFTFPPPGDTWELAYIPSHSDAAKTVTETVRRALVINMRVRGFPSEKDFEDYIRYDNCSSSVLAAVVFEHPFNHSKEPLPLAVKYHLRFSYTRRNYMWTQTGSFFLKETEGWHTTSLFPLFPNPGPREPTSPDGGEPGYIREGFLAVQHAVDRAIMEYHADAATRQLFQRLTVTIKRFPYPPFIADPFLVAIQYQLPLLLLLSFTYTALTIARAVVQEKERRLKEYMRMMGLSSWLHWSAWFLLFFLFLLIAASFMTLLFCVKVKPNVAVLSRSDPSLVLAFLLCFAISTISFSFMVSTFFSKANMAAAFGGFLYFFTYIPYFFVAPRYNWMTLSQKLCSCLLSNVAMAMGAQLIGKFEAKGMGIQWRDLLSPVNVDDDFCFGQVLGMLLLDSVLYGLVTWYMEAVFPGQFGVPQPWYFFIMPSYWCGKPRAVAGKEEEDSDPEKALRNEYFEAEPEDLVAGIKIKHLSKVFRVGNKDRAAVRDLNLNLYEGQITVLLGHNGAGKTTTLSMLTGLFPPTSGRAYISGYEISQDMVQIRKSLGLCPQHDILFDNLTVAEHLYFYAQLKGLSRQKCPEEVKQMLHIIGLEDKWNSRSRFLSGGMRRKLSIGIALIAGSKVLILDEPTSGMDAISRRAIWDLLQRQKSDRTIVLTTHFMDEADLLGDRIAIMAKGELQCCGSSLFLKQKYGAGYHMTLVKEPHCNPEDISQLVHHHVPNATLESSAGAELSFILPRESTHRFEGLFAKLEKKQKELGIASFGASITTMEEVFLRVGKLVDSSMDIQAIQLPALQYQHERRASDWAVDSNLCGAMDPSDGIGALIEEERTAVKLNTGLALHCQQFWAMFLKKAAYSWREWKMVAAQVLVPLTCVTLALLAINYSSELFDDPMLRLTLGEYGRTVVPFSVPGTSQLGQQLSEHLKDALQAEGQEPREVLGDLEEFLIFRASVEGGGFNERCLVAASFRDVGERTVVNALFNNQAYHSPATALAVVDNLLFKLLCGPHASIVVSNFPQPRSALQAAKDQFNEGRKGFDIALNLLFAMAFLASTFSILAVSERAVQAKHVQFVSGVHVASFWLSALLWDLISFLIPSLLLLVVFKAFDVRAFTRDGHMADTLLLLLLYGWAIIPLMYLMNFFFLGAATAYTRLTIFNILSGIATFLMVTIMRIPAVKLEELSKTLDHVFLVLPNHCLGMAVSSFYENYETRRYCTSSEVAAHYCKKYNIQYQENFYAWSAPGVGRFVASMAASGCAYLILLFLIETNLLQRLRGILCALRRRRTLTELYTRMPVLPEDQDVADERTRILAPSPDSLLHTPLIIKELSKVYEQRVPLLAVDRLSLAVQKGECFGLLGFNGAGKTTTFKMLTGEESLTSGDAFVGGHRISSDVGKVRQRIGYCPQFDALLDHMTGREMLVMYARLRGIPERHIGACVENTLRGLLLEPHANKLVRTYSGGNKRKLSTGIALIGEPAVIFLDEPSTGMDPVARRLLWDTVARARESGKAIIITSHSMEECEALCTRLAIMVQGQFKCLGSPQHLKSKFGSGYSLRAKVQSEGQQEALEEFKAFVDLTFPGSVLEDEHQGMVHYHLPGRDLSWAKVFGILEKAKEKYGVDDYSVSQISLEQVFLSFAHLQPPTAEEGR
UniProt Q9UG63: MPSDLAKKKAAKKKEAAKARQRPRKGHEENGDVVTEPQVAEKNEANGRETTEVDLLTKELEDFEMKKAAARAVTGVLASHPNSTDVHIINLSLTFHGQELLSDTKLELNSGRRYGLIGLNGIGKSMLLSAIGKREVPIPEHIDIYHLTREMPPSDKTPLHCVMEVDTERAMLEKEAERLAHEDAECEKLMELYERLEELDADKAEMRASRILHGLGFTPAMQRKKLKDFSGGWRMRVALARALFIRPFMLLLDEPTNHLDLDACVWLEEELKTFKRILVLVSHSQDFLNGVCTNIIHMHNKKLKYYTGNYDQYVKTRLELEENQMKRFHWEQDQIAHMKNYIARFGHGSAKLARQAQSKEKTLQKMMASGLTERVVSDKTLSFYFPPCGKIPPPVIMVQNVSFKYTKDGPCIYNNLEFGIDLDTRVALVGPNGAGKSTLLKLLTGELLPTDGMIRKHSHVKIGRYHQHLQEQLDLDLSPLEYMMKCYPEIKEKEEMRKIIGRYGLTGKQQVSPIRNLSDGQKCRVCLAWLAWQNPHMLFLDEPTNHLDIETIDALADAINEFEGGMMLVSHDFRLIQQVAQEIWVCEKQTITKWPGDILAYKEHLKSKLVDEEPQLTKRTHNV
UniProt Q9H3P7: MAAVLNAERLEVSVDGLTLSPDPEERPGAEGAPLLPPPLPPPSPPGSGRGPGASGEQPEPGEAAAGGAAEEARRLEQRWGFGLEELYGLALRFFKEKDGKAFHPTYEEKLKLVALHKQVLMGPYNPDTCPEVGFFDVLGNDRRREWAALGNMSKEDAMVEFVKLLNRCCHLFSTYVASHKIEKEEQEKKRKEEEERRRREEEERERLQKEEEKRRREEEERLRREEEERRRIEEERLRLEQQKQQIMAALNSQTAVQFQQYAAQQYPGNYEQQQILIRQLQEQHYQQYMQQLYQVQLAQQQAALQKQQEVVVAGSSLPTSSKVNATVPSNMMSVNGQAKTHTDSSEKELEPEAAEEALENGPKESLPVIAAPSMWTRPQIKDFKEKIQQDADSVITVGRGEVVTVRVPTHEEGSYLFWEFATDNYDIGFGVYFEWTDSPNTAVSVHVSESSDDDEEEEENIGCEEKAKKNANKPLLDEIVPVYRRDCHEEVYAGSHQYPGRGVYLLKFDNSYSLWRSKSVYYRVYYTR
UniProt Q9NY61: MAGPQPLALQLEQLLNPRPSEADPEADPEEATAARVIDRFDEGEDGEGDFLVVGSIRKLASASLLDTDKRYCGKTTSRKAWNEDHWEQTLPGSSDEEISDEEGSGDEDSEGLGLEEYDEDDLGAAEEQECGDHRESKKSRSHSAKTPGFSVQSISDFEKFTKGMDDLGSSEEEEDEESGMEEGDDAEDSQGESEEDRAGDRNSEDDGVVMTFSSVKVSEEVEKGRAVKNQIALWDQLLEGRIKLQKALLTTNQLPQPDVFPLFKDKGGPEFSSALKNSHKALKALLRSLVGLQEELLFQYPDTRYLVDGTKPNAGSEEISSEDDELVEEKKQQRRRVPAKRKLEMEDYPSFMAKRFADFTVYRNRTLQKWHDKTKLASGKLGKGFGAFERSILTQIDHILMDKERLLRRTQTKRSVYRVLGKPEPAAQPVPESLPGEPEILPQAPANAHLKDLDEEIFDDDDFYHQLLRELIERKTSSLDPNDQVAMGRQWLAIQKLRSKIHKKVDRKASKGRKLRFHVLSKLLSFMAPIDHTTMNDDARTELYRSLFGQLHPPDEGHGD
UniProt Q6PD74: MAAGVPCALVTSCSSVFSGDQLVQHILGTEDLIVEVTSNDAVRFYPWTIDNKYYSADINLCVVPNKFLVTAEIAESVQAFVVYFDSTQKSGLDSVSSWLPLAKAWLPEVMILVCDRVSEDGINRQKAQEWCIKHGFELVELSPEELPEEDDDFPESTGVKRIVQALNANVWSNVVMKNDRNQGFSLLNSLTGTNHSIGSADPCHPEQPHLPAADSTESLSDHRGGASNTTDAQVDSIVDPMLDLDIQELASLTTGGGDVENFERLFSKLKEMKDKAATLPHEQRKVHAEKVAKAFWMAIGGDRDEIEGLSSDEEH
UniProt Q9NPJ3: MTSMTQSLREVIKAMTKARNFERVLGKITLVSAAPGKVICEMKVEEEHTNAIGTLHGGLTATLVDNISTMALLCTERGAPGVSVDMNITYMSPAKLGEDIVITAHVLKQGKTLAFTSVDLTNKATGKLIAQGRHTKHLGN
UniProt Q9NP58: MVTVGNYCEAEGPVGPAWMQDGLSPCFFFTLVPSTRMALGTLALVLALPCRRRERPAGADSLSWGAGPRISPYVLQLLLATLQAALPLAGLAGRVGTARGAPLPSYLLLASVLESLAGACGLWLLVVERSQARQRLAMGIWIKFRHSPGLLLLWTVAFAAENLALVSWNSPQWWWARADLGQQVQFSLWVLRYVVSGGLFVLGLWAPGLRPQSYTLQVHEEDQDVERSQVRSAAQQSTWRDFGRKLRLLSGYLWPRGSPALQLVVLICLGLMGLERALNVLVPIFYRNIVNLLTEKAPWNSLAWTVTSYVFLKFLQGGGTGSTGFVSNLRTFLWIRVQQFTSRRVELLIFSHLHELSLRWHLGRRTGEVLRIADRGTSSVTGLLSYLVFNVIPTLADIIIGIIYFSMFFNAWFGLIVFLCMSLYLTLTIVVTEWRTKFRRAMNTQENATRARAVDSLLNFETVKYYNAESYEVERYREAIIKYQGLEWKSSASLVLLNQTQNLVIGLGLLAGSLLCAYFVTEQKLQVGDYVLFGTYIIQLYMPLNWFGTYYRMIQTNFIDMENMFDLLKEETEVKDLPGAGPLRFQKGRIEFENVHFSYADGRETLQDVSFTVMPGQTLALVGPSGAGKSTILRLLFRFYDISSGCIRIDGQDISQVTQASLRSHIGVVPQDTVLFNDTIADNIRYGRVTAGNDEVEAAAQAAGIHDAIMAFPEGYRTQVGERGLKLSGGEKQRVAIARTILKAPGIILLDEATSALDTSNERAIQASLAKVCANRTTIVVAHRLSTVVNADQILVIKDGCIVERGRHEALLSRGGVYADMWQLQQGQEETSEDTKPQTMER
UniProt Q9BTE6: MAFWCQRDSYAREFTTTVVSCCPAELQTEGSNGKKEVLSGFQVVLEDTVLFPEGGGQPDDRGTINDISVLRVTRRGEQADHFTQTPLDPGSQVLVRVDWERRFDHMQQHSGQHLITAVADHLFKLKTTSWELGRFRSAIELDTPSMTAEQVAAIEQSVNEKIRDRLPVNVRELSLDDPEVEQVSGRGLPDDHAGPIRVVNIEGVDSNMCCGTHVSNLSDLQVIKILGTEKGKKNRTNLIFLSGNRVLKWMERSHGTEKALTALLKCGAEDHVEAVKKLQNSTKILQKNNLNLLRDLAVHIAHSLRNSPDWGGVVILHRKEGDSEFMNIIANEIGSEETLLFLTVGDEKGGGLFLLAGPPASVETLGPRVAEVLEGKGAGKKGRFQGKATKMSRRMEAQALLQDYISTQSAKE

[1] = compound: CCCS(=O)(=O)Nc1ccc(F)c(C(=O)c2c[nH]c3ncc(Cl)cc23)c1F
Outline: as §1

barasertib = compound: CCN(CCCOc1ccc2c(Nc3cc(CC(=O)Nc4cccc(F)c4)[nH]n3)ncnc2c1)CCOP(=O)(O)O [barasertib]
Outline: as §1

[2] = compound: CC[C@@H]1C(=O)N(C)c2cnc(Nc3ccc(C(=O)NC4CCN(C)CC4)cc3OC)nc2N1C1CCCC1
Outline: as §1

volasertib = compound: CC[C@@H]1C(=O)N(C)c2cnc(Nc3ccc(C(=O)N[C@H]4CC[C@H](N5CCN(CC6CC6)CC5)CC4)cc3OC)nc2N1C(C)C [volasertib]
Outline: as §1

[3] = compound: CCn1c(C(=O)N(C2CC2)C2CC2)cc2c3c(ncn3C)c(Nc3cc(C)n(C)n3)nc21
Outline: as §1

[4] = compound: CCn1cc(-c2ccnc3[nH]c(-c4cccc(CN(C)C)c4)cc23)c(-c2ccc(NC(=O)N(C)C)cc2)n1
Outline: as §1

[5] = compound: CN1CCC(CNc2ccc3ncc(-c4cccc(OC(F)(F)F)c4)n3n2)CC1
Outline: as §1

saracatinib = compound: CN1CCN(CCOc2cc(OC3CCOCC3)c3c(Nc4c(Cl)ccc5c4OCO5)ncnc3c2)CC1 [saracatinib]
Outline: as §1

sotrastaurin = compound: CN1CCN(c2nc(C3=C(c4c[nH]c5ccccc45)C(=O)NC3=O)c3ccccc3n2)CC1 [sotrastaurin]
Outline: as §1

Measured: log2 fold change

ABCB10 (UniProt Q9NRK6)
inactive: vemurafenib 0.034 | [1] -0.013 | barasertib -0.029 | [2] -0.013 | volasertib 0.022 | [3] 0.023 | [4] -0.082 | [5] -0.082 | saracatinib -0.014 | sotrastaurin 0.046

ABHD12 isoform 2 (UniProt Q8N2K0)
inactive: vemurafenib -0.049 | [1] 0.077 | barasertib -0.015 | [2] 0.034 | volasertib 0.006 | [3] -0.055 | [4] 0.119 | [5] -0.111 | saracatinib -0.039 | sotrastaurin 0.018

ABCD3 (UniProt P28288)
inactive: vemurafenib 0.078 | [1] 0.058 | barasertib 0.053 | [2] -0.077 | volasertib -0.029 | [3] -0.07 | [4] -0.054 | [5] 0.044 | saracatinib -0.071 | sotrastaurin 0.073

ABHD10 (UniProt Q9NUJ1)
inactive: vemurafenib -0.017 | [1] 0.006 | barasertib 0.003 | [2] 0.06 | volasertib 0.029 | [3] 0.006 | [4] 0.072 | [5] -0.009 | saracatinib -0.001 | sotrastaurin 0

ABCA3 (UniProt Q99758)
inactive: vemurafenib 0.114 | [1] -0.044 | barasertib 0.057 | [2] -0.009 | volasertib 0.089 | [3] -0.163 | [4] -0.086 | [5] 0.051 | saracatinib -0.05 | sotrastaurin 0.031

AASDH (UniProt Q4L235)
inactive: vemurafenib -0.015 | [1] 0.063 | barasertib 0.02 | [2] 0.024 | volasertib -0.023 | [3] 0.004 | [4] -0.01 | [5] -0.056 | saracatinib 0.051

ACAP2 (UniProt Q15057)
inactive: vemurafenib 0.031 | [1] 0.001 | barasertib 0.005 | [2] -0.021 | volasertib -0.017 | [3] 0.019 | [4] 0.021 | [5] -0.041 | saracatinib 0.027 | sotrastaurin -0.017

AAMP (UniProt Q13685)
inactive: vemurafenib -0.001 | [1] 0.026 | barasertib 0.006 | [2] 0.002 | volasertib -0.002 | [3] -0.012 | [4] 0.074 | [5] -0.022 | saracatinib -0.038 | sotrastaurin -0.038

ACAA1 (UniProt P09110)
inactive: vemurafenib 0.034 | [1] 0.033 | barasertib -0.027 | [2] 0.006 | volasertib 0.036 | [3] 0.001 | [4] -0.049 | [5] 0.039 | saracatinib 0.002 | sotrastaurin -0.004

ACAD9 (UniProt Q9H845)
inactive: vemurafenib -0.044 | [1] 0 | barasertib 0.01 | [2] -0.015 | volasertib 0.013 | [3] -0.015 | [4] -0.053 | [5] 0.019 | saracatinib -0.03 | sotrastaurin -0.016

ACBD6 (UniProt Q9BR61)
inactive: vemurafenib 0.028 | [1] 0.035 | barasertib -0.006 | [2] -0.025 | volasertib -0.082 | [3] 0.013 | [4] -0.009 | [5] 0.006 | saracatinib -0.015 | sotrastaurin 0.014

ABCF2 isoform 2 (UniProt Q9UG63)
inactive: vemurafenib 0.017 | [1] 0.002 | barasertib -0.014 | [2] -0.072 | volasertib -0.045 | [3] 0.026 | [4] -0.008 | [5] -0.026 | saracatinib 0 | sotrastaurin 0.036

ABCC5 (UniProt O15440)
active: vemurafenib -0.603
inactive: [1] -0.001 | barasertib -0.034 | [2] -0.067 | volasertib -0.136 | [3] 0.145 | [4] -0.137 | [5] -0.022 | saracatinib 0.013 | sotrastaurin 0.018

AARS1 (UniProt H3BPK7)
inactive: vemurafenib 0.047

AAR2 (UniProt Q9Y312)
inactive: vemurafenib 0.032 | [1] 0.03 | barasertib 0.011 | [2] -0.029 | volasertib 0.005 | [3] -0.007 | [4] 0.022 | [5] 0.001 | saracatinib -0.017 | sotrastaurin 0

ACBD3 (UniProt Q9H3P7)
inactive: vemurafenib 0.013 | [1] 0.048 | barasertib 0.033 | [2] 0.009 | volasertib 0.001 | [3] 0.001 | [4] 0.016 | [5] 0.02 | saracatinib 0.008 | sotrastaurin 0.025

AARS (UniProt P49588)
inactive: vemurafenib -0.007 | [1] -0.009 | barasertib -0.03 | [2] -0.044 | volasertib -0.03 | [3] 0.025 | [4] 0.019 | [5] -0.002 | saracatinib -0.007 | sotrastaurin 0.003

AAK1 (UniProt Q2M2I8)
inactive: vemurafenib 0.015 | [1] -0.087 | barasertib -0.004 | [2] 0.049 | volasertib 0.061 | [3] -0.005 | [4] -0.068 | [5] 0.407 | saracatinib 0.029 | sotrastaurin 0.033

AATF (UniProt Q9NY61)
inactive: vemurafenib 0.151 | [1] 0.048 | barasertib -0.109 | [2] -0.002 | volasertib 0.008 | [3] 0.001 | [4] -0.232 | [5] -0.079 | saracatinib -0.007 | sotrastaurin 0.055

ABCE1 (UniProt P61221)
inactive: vemurafenib -0.013 | [1] -0.001 | barasertib -0.001 | [2] -0.038 | volasertib 0.008 | [3] -0.02 | [4] -0.001 | [5] 0.024 | saracatinib -0.011 | sotrastaurin -0.006

ACADVL isoform 3 (UniProt P49748)
inactive: vemurafenib -0.014 | [1] 0 | barasertib -0.028 | [2] 0.083 | volasertib 0.054 | [3] 0.005 | [4] -0.04 | [5] 0.058 | saracatinib -0.048 | sotrastaurin 0.009

ABCC1 (UniProt P33527)
inactive: vemurafenib -0.016 | [1] 0.015 | barasertib -0.016 | [2] 0.006 | volasertib 0.016 | [3] 0.012 | [4] -0.032 | [5] 0.02 | saracatinib 0.022 | sotrastaurin -0.014

AAGAB (UniProt Q6PD74)
inactive: vemurafenib 0.055 | [1] 0.037 | barasertib -0.029 | [2] -0.004 | volasertib -0.027 | [3] -0.007 | [4] 0.019 | [5] -0.022 | saracatinib 0.044 | sotrastaurin 0.018

ACACA isoform 4 (UniProt Q13085)
inactive: vemurafenib 0.014 | [1] 0.024 | barasertib 0.043 | [2] -0.062 | volasertib -0.085 | [3] 0.056 | [4] -0.025 | [5] -0.067 | saracatinib 0.001 | sotrastaurin 0.011

ACOT13 (UniProt Q9NPJ3)
inactive: vemurafenib 0.012 | [1] -0.013 | barasertib -0.035 | [2] 0.029 | volasertib 0.02 | [3] -0.004 | [4] -0.032 | [5] 0.043 | saracatinib -0.011 | sotrastaurin -0.006

ACADM isoform 2 (UniProt P11310)
inactive: vemurafenib 0.02 | [1] -0.011 | barasertib 0.069 | [2] 0.001 | volasertib -0.062 | [3] -0.051 | [4] -0.031 | [5] -0.046 | saracatinib -0.023
active: sotrastaurin 0.67

ABHD16A (UniProt O95870)
inactive: vemurafenib 0.074 | [1] 0.012 | barasertib 0.026 | [2] 0.141 | volasertib 0.002 | [3] -0.059 | [4] -0.001 | [5] 0.019 | saracatinib 0.021 | sotrastaurin 0.051

ABCF3 (UniProt Q9NUQ8)
inactive: vemurafenib 0.013 | [1] 0.037 | barasertib 0.03 | [2] -0.079 | volasertib -0.099 | [3] 0.044 | [4] 0.015 | [5] -0.059 | saracatinib -0.006 | sotrastaurin 0.033

AACS (UniProt Q86V21)
inactive: vemurafenib 0.033 | [1] -0.059 | barasertib 0.078 | [2] -0.017 | volasertib -0.037 | [3] 0.064 | [4] 0.01 | [5] -0.07 | saracatinib 0.013 | sotrastaurin 0.012

ABCB6 (UniProt Q9NP58)
inactive: vemurafenib 0.03 | [1] 0.023 | barasertib -0.012 | [2] 0.042 | volasertib -0.023 | [3] -0.028 | [4] -0.058 | [5] -0.042 | saracatinib 0.007 | sotrastaurin 0.005

AARSD1 isoform 3 (UniProt Q9BTE6)
inactive: vemurafenib 0.029 | [1] 0.008 | barasertib 0.036 | [2] -0.059 | volasertib -0.024 | [3] 0.034 | [4] -0.009 | [5] -0.104 | saracatinib 0.035 | sotrastaurin 0.008

Reprinted at random: two records from the list
AACS (UniProt Q86V21)
inactive: vemurafenib 0.033 | [1] -0.059 | barasertib 0.078 | [2] -0.017 | volasertib -0.037 | [3] 0.064 | [4] 0.01 | [5] -0.07 | saracatinib 0.013 | sotrastaurin 0.012

AARSD1 isoform 3 (UniProt Q9BTE6)
inactive: vemurafenib 0.029 | [1] 0.008 | barasertib 0.036 | [2] -0.059 | volasertib -0.024 | [3] 0.034 | [4] -0.009 | [5] -0.104 | saracatinib 0.035 | sotrastaurin 0.008
